Data: publication PMC6077975
Results are given in words; binding and its absence hold for the method and conditions named. Binding can be weak; no strength is given.

Target: T1, full-length ABCB6/HMT-1 as split-ubiquitin bait (HMT-1::Cub) (C. elegans) (UniProt G5EFD4)
T1 sequence: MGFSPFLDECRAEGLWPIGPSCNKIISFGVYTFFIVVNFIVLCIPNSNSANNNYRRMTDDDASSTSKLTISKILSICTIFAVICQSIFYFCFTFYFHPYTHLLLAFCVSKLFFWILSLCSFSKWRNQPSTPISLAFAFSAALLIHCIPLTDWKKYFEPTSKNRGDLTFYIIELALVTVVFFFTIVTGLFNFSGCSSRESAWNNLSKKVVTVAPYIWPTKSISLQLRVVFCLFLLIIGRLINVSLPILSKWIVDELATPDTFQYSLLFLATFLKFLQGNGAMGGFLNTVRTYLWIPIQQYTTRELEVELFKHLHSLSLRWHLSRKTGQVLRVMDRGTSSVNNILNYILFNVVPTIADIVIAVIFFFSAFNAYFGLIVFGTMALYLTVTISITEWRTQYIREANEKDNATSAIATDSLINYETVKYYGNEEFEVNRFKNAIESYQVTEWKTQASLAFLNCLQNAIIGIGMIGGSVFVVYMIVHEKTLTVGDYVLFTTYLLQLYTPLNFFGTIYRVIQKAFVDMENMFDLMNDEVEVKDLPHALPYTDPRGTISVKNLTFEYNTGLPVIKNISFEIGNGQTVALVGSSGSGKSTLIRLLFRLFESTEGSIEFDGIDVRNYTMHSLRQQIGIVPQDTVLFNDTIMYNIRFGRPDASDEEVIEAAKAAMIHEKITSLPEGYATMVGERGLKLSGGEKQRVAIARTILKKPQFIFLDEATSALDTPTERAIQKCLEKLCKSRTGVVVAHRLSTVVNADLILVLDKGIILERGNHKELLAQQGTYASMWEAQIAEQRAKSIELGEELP
Experiment: two-hybrid; mating-based split-ubiquitin system (mbSUS) in yeast; CubPLV bait, NubG prey; growth on SC medium lacking adenine, histidine, leucine, tryptophan; β-galactosidase (X-gal) to confirm

With “ABCB6/HMT-1 lacking the NTE domain as split-ubiquitin prey (ΔNTE-HMT-1::NubG) (C. elegans) (domain or fragment)” the binding was “binds weakly”.
